The values that follow come from US9655822B2, “Hydrated lamellar phases or liposomes which contain a fatty monoamine or a cationic polymer which promotes intracellular penetration, and a cosmetic or pharmaceutical composition containing same, as well as a method of screening such a substance” (BASF Beauty Care Solutions France S.A.S., priority 2004, dated 2017).

This data set relates to normal human fibroblasts. In words: Intracellular penetration of fluorescent tracers, free or in liposomes (spectrofluorimetry). As to conditions: selection as tracer. The format is cell-based. The text has this:
The selection of the tracer necessitated the preparation and the purification of liposomes, according to the protocol described in Example 1, these liposomes containing varying concentrations of the various hydrosoluble or liposoluble tracers (Table 1, Annex 1). The controls—a free fluorescent tracer—are made by dissolution at the same concentration of fluorescent tracer in the dilution buffer, so as to quantify its cytotoxicty and its spontaneous penetration in the fibroblasts.
Practically, after extraction from a biopsy originating from abdominal plastic surgery, the fibroblasts are amplified in DF medium, i.e.: DMEM (Dulbecco's Modified Eagle's Medium)/Ham F12 glutamax 50/50 volume/volume, supplemented with 10% of calf serum, with penicillin at a final concentration of 100 UI/millilitre, with gentamicin at a final concentration of 1 microgram/millilitre, with amphotericin B at a final concentration of 1 microgram/millilitre.
Firstly, after centrifugation, the purified liposomes are taken up into DF culture medium, homogenised in a vortex, and are deposited at the rate of 1 ml per well on the fibroblasts cultivated in 24-well plates (Costar MW24). The controls are made under the same conditions. A non-treated control is also made.
The fibroblasts are incubated for 24 hours at 37° C. in the presence of the liposomes, and are then rinsed 3 times in pH 7.4 phosphate buffer. First of all, the fluorescence is evaluated dry by spectrofluorimetry with a Cytofluor 4000® (Millipore). Secondly, the intracellular fluorescence is observed for the molecules of interest on an Olympus® reverse microscope (IX70) by using the corresponding excitation filter (objective ×10, ×40 and ×100). Finally, the cytotoxicity of the fluorescent tracers is evaluated in a 96-well plate by incubation for 24 hours as described in Example 1.
The intracellular penetration of liposomes which contain 5% of soya lecithin, 0.01% of PFB-F or TRITC in the presence or not of 0.5% 25 kDa polyethylenimine (PEI), which are prepared according to the protocol described in Example 1, is analysed after incubation for 24 hours on human fibroblasts cultivated in a 24-well plate, as described in Example 2.
On to `Cc1ccc(N(CC(=O)[O-])CC(=O)[O-])c(OCCOc2cc3cc(-c4ncc(C(=O)[O-])o4)oc3cc2N(CC(=O)[O-])CC(=O)[O-])c1.[K+].[K+].[K+].[K+].[K+]` [#F-1200 Fura-2. pentapotassium salt, Fura-2. pentapotassium salt], for which the Retained result is “Yes”. In the case of `O=C1OC2(c3ccc(O)cc3Oc3cc(O)ccc32)c2ccc(NC(=O)c3c(F)c(F)c(F)c(F)c3F)cc21` [PFB-F, 5-pentafluorobenzoylaminofluorescein], the Retained result was “Yes”. The result for `NNC(=O)COc1cc(S(=O)(=O)[O-])c2ccc3c(S(=O)(=O)[O-])cc(S(=O)(=O)[O-])c4ccc1c2c43.[Na+].[Na+].[Na+]` [cascade blue hydrazine trisodium salt] reads “No”. As for `O=S(=O)([O-])c1cc(O)c2ccc3c(S(=O)(=O)[O-])cc(S(=O)(=O)[O-])c4ccc1c2c34.[Na+].[Na+].[Na+]` [hydroxypyrene trisulfonic acid, trisodium salt], the Retained entry is listed as “No”. With “Lysosensor yellow/blue DND 160 [#L7545L Lysosensor yellow/blue DND 160]”, the Retained result was “No”. Regarding “carboxy dichlorofluorescein [#C-369 carboxy dichlorofluorescein]”, the Retained entry was “No”.

For “carboxyethyl carboxyffluorescein [#B-1151 carboxyethyl carboxyffluorescein]”, the Retained result is “No”. The same measure for “sulfo fluorescein diacetate [#S-1129 sulfo fluorescein diacetate]”: “No”; for “tetramethylrhodamine isothiocyanate [TRITC]”: “No Interferes”.
